The list shows a part of the results. Most values lie at the level of the controls, where differences are scatter.

By UniProt entry, the sequences of proteins in these tests, tags left out. Where a name states a change or a piece, a line headed by the entry shows the natural chain unless it says otherwise.
UniProt Q8TB45, whole entry: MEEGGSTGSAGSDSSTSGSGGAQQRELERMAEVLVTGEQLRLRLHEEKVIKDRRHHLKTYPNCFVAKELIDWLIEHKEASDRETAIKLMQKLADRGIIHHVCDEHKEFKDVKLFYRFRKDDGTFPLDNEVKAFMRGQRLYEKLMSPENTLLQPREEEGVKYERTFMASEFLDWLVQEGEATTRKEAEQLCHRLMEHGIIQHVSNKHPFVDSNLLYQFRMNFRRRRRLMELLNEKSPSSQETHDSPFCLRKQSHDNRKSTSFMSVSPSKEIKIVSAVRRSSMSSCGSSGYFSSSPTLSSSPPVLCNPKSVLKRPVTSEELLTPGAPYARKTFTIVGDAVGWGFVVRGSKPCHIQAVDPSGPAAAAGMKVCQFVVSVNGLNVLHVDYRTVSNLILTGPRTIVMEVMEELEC
UniProt Q8TAC2: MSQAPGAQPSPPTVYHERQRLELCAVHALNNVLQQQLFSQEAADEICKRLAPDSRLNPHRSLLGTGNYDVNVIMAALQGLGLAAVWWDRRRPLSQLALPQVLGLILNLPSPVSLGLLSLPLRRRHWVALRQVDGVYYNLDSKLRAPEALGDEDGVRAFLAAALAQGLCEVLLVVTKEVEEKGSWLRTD
UniProt Q8N511: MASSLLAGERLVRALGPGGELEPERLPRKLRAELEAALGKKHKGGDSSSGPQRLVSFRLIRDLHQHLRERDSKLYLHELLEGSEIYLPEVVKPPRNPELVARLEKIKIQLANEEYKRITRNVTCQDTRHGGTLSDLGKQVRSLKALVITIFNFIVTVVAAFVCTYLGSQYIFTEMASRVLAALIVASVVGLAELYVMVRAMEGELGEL
UniProt Q8N7K0: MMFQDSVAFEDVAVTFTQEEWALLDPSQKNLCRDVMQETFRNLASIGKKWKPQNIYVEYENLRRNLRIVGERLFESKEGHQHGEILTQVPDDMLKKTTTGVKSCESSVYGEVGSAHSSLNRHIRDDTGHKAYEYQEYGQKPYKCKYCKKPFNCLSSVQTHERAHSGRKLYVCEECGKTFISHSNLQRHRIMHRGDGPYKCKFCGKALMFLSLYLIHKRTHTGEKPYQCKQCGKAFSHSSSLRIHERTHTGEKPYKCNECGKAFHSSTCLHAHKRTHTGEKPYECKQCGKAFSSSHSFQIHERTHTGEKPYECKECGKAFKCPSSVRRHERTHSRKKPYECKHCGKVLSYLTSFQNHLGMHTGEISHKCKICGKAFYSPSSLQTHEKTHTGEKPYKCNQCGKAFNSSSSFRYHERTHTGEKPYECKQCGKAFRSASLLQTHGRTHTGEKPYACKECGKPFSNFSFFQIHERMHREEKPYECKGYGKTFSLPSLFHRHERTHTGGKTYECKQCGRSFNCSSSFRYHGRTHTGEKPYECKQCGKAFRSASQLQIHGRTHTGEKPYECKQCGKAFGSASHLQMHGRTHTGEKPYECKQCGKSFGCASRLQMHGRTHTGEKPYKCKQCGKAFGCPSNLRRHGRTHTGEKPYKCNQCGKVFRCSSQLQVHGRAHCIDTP
UniProt Q8NFU7: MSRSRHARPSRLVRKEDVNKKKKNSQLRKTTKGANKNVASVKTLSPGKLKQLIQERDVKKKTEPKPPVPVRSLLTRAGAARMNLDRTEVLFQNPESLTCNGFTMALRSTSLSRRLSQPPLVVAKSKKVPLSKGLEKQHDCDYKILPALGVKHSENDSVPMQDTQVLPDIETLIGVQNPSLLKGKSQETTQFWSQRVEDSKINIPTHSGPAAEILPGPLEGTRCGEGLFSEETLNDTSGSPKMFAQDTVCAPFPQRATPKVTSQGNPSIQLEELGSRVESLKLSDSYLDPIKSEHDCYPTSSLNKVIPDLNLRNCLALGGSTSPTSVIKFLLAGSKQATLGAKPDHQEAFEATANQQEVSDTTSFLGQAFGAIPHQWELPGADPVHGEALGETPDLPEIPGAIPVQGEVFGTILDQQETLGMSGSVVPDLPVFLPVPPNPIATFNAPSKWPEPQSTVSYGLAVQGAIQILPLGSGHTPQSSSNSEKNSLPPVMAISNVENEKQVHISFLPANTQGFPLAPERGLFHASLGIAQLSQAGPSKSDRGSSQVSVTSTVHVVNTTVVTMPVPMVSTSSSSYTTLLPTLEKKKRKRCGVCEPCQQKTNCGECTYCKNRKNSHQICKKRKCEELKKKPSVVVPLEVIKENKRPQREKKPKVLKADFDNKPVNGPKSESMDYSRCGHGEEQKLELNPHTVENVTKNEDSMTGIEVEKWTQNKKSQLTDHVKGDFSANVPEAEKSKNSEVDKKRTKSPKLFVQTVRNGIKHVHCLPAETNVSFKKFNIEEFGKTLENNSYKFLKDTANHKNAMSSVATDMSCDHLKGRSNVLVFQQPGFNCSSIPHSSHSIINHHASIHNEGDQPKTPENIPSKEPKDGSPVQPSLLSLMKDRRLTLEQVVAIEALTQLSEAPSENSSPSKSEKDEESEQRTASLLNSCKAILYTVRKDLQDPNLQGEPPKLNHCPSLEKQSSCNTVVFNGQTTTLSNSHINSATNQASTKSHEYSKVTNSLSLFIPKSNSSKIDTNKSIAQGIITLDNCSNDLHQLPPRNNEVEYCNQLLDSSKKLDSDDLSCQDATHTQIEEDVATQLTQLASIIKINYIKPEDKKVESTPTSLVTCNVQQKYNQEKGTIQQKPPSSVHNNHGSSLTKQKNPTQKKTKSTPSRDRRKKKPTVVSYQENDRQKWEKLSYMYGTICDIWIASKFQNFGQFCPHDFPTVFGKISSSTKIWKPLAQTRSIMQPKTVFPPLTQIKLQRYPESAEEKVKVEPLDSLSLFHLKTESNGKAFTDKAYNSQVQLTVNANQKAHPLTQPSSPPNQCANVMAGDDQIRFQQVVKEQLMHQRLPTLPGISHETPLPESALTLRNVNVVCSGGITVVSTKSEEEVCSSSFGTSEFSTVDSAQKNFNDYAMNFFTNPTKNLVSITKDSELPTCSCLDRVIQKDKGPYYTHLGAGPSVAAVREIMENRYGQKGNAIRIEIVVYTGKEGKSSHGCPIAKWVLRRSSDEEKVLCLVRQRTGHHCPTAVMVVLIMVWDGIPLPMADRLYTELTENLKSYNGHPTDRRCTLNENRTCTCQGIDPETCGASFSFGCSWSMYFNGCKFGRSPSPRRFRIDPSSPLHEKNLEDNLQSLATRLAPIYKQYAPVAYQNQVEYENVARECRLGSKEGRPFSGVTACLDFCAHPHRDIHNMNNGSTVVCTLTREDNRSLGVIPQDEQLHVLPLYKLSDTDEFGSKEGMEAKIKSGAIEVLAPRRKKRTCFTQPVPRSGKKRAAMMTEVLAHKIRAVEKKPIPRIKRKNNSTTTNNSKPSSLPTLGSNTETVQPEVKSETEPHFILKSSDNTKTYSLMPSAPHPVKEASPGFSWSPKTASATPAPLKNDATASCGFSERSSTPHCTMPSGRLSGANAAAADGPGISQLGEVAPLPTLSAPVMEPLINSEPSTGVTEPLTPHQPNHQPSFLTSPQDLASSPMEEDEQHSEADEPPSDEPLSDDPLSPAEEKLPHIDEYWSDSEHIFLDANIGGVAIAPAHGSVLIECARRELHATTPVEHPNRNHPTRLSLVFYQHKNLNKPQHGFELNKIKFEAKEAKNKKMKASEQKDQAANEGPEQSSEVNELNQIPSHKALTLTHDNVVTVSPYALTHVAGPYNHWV
UniProt Q8NEN9: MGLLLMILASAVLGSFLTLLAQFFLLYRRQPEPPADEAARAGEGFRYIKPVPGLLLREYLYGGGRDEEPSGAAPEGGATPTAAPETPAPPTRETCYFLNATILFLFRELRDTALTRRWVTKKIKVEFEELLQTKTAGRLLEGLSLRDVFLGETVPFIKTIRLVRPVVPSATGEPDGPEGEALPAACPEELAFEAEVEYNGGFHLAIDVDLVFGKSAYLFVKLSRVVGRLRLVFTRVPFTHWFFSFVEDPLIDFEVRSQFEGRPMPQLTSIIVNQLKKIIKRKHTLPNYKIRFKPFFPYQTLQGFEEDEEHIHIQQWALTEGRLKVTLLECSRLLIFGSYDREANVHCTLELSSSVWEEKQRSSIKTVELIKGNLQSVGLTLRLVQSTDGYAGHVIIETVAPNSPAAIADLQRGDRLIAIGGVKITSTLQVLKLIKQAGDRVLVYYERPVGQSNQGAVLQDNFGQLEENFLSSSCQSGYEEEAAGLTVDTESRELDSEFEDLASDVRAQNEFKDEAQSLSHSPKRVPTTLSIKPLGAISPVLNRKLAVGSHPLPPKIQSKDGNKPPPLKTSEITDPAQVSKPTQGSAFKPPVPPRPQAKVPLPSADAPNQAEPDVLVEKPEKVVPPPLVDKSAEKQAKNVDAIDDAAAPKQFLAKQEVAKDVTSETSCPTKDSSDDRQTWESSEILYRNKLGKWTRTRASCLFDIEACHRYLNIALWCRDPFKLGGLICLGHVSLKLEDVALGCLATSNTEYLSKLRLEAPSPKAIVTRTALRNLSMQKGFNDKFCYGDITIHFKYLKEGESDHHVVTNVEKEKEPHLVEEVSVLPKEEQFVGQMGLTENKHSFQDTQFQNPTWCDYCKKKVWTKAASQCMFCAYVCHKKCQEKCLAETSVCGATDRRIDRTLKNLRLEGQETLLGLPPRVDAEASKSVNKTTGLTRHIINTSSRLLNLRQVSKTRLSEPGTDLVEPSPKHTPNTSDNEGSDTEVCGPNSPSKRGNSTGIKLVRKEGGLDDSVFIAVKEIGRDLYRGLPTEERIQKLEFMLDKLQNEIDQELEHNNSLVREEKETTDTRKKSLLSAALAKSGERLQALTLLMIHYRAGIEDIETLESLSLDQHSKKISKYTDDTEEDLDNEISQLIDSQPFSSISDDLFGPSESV
UniProt Q8N5C7: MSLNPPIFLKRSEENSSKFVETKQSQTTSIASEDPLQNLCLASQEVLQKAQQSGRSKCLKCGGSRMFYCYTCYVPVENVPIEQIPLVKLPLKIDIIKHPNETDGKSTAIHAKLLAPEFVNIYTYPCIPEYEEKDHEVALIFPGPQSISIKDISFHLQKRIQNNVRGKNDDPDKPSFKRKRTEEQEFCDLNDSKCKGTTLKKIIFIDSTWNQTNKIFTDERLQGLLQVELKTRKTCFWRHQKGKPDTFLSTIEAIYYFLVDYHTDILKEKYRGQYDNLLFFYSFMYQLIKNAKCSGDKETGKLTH
UniProt Q8N465: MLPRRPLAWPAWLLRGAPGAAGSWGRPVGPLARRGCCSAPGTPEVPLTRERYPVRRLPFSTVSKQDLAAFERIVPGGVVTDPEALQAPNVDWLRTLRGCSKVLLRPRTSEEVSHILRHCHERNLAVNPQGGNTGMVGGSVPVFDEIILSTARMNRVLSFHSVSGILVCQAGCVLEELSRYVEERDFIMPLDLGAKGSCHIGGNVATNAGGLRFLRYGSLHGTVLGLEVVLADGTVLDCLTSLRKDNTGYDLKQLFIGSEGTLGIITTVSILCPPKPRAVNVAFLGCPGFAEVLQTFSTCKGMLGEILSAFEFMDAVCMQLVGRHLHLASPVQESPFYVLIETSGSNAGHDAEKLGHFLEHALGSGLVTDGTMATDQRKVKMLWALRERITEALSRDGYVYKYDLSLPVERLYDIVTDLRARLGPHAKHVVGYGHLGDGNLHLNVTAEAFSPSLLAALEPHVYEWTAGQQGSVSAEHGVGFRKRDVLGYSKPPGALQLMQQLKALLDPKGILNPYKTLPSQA
UniProt Q8N4U5: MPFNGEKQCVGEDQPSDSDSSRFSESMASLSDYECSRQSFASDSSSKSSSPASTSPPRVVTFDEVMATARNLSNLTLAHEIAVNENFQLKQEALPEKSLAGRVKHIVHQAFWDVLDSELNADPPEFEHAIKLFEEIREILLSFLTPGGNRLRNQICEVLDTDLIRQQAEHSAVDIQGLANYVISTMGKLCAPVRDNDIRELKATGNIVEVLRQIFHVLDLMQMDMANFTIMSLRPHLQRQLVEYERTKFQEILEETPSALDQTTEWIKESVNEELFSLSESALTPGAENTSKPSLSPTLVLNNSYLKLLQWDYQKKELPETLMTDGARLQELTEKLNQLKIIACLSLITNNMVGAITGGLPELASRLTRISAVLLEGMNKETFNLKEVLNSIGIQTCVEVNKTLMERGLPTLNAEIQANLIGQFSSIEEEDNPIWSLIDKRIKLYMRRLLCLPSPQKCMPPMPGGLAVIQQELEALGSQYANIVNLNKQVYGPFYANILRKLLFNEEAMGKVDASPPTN
UniProt Q8NFW8: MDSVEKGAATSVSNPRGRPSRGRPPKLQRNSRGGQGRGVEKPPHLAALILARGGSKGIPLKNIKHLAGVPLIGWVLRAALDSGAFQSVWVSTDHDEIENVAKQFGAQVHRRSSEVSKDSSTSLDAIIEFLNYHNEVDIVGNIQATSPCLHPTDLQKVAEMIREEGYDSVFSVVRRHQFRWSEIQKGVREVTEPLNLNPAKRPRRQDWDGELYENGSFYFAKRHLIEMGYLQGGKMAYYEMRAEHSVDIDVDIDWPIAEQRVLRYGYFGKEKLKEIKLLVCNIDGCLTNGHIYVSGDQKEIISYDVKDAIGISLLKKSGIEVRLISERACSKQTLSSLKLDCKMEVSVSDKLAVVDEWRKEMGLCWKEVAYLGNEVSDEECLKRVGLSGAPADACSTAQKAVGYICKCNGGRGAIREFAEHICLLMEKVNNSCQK

Compound in the experiment: CN[C@@H]1C[C@H]2O[C@@](C)([C@@H]1OC)n1c3ccccc3c3c4c(c5c6ccccc6n2c5c31)C(=O)NC4 [staurosporine]
Kind of experiment: log2 fold change of tryptic peptide abundance, ligand vs vehicle (limited proteolysis) (log2 ratio); higher = more trypsin-susceptible (destabilized). As to conditions: ligand concentration: 20 uM; sample: K562 cleared lysate; digestion: 4 min, 22 C (HT-PELSA RT4min, Orbitrap Astral).
Consider “SVIP (peptide sequence: GILDVQSVQEK, peptide start residue: 40) (UniProt Q8NHG7)”, for which the log2 fold change stood at 0.461.
For the target “DTWD2 (peptide sequence: PSGASSSQTPNDKER, peptide start residue: 17) (UniProt Q8NBA8)”, the log2 fold change was -0.463.
As for “DOCK8 (peptide sequence: KNQGSPEICGFKK, peptide start residue: 135) (UniProt Q8NF50)”, the figure is 0.755; as for “UniProt Q8TB45 (peptide sequence: EIKIVSAVR, peptide start residue: 269)”, -0.155; as for “UniProt Q8N954 (peptide sequence: NALGCENKGFALLQK, peptide start residue: 91)”, -0.231.
Take “UniProt Q8TAC2 (peptide sequence: APEALGDEDGVR, peptide start residue: 145)”: the log2 fold change was found to be 0.192.
The same measure for “TMEM199 (peptide sequence: HGGTLSDLGK, peptide start residue: 129) (UniProt Q8N511)”: 0.674; for “FANCB (peptide sequence: ENIHPYRK, peptide start residue: 807) (UniProt Q8NB91)”: 0.624.
As for “UniProt Q8N7K0 (peptide sequence: DVMQETFR, peptide start residue: 40)”, the figure is -0.103; as for “UniProt Q8NCA9 (peptide sequence: GFTQSSVLSGHAR, peptide start residue: 232)”, -0.122; as for “KBTBD8 (peptide sequence: IPPQFAQAIAK, peptide start residue: 253) (UniProt Q8NFY9)”, 0.0537.
As for “TET1 (peptide sequence: VKVEPLDSLSLFHLK, peptide start residue: 1255) (UniProt Q8NFU7)”, the figure is -0.526; as for “ZNF485 (peptide sequence: EAPSGTHAVEDYWFETK, peptide start residue: 75) (UniProt Q8NCK3)”, -0.39; as for “PDZD8 (peptide sequence: VVPPPLVDK, peptide start residue: 622) (UniProt Q8NEN9)”, -0.233.
“DTWD1 (peptide sequence: IIFIDSTWNQTNK, peptide start residue: 202) (UniProt Q8N5C7)”: the log2 fold change is -0.83.
The same measure for “TSEN2 (peptide sequence: AEAVFHAPKR, peptide start residue: 2) (UniProt Q8NCE0)”: 0.395.
Regarding “D2HGDH (peptide sequence: DFIMPLDLGAK, peptide start residue: 185) (UniProt Q8N465)”, the log2 fold change is -0.249.
The same measure for “TCP11L2 (peptide sequence: LLQWDYQK, peptide start residue: 308) (UniProt Q8N4U5)”: -0.392; for “NUP37 (peptide sequence: TLPLCVIGGDHK, peptide start residue: 307) (UniProt Q8NFH4)”: 0.321; for “EXOC6 (peptide sequence: EISMSDLK, peptide start residue: 194) (UniProt Q8TAG9)”: 0.571.
Turning to “UniProt Q8N7X4 (peptide sequence: PYFPQILNR, peptide start residue: 231)”, the log2 fold change is -0.181.
The same measure for “TMEM102 (peptide sequence: AAVESPVPKPSEAR, peptide start residue: 242) (UniProt Q8N9M5)”: 0.244; for “DDX51 (peptide sequence: FLIIDEADR, peptide start residue: 367) (UniProt Q8N8A6)”: -0.293.
Regarding “UniProt Q8NFR7 (peptide sequence: LASASAK, peptide start residue: 41)”, the log2 fold change was -0.0398.
With “UniProt Q8N587 (peptide sequence: AVTASSHLK, peptide start residue: 233)”, the log2 fold change stood at 0.194.
“UniProt Q8NDZ2 (peptide sequence: EISLSEPAKPGSAHVQSR, peptide start residue: 402)”: the log2 fold change was 0.264.
For the target “CMAS (peptide sequence: GVEKPPHLAALILAR, peptide start residue: 38) (UniProt Q8NFW8)”, the log2 fold change came out at 0.136.
The same measure for “UniProt Q8TAP9 (peptide sequence: SPAGSQQQFGYSPGQQQTHPQGSPR, peptide start residue: 93)”: -0.23; for “WDTC1 (peptide sequence: ILITGAADSK, peptide start residue: 106) (UniProt Q8N5D0)”: 0.292.

These data come from the supplement of paper PMC12819154, “High-throughput peptide-centric local stability assay extends protein–ligand identification to membrane proteins, tissues and bacteria” (Nature Structural & Molecular Biology, 2025).
